Results published in article doi:10.1101/2024.12.22.627358.
These are yes or no findings as the source states them, for the method shown. In cells and extracts the contact can be indirect. Some results given as binding are weak or reduced against the parent protein; the word gives no strength. Tags and fused reporters may be left off the sequences shown.

Columns and labels:
[1] = target: T1, HSBP-nYFP (HEAT SHOCK FACTOR BINDING PROTEIN fused to the N-terminal part of YFP) (Arabidopsis thaliana) (UniProt Q8GW48); experiment: split reporter
T1 sequence: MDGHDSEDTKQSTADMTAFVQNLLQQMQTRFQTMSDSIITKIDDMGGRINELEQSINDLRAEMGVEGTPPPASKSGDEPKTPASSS

[2] = target: T2, HSBP-GFP (Arabidopsis thaliana) (UniProt Q8GW48); experiment: co-IP
T2 sequence: T1 sequence

B1: EID1-cYFP (… IM DUNKELROTEN LICHT 1 fused to the C-terminal part of YFP) (protein, UniProt Q8LEA8 1-336)
chain: MAESVFSCIPEDVVFNIFFKLQDDPRNWARLACVCTKFSSIVRNVCCKTQCYSAIPTVISDLLPLPPSAAASASSSTAADSSLTPPGGWASLYKLAVCCPGLFHAGILLENSDFGLERELGPDQNLDPKPTTTDLALNDEEVSKPVGSGLETTSFWSLYDDLYTDTIPAPPPEDSIDDQEEEIETSEIRPGRDLPVRKRRKICRSLGSHLASGGWNLSREQGNKLLASRFRGDCLYICNWPGCIHVEEKRNYMLFRGVFKDFKRSRVWRTINDGNRSKTSGLKCAFCLCDETWDLHSSFCLRRVFGFHDDGEPVVRAYVCENGHVSGAWTALPLYT
For B1, the binding [1] was “binds”.

B2: FLAG-EID1 (protein, UniProt Q8LEA8 1-336)
chain: B1 chain
B2 was tested, and the binding [2] was “binds”.
